Measurements from paper PMC8274477.
Results are given in words; binding and its absence hold for the method and conditions named. Some entries that bind do so weakly or less than the wild type.

By UniProt entry, the sequences of proteins in these tests, tags left out.
UniProt Q92879: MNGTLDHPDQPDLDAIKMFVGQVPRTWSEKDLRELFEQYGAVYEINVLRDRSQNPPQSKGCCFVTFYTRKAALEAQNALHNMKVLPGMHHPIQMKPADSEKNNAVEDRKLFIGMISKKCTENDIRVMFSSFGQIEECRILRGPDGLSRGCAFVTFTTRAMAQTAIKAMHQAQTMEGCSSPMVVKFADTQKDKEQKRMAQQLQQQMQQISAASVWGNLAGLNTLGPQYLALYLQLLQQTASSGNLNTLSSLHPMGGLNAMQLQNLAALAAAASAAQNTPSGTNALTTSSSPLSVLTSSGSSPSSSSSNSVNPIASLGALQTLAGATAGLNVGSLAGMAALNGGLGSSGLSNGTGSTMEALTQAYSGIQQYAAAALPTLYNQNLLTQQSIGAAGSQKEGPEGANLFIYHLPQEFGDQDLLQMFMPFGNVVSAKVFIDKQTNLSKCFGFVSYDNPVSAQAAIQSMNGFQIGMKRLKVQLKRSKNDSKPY

What was measured:
Assay in all cases: peptide or protein array; HuProt human proteome microarray; 5 ug/5 ml biotin-labelled LUBAC or OTULIN in solution, 1 h at room temperature; Cy5-streptavidin, scanned at 635 nm; BSA as negative control; hits: Z-score >= 3 and I_(Mean_Ratio) >= 1.4; both purified
[1] = biological target: T1, RTCA (human) (UniProt O00442)
T1 sequence: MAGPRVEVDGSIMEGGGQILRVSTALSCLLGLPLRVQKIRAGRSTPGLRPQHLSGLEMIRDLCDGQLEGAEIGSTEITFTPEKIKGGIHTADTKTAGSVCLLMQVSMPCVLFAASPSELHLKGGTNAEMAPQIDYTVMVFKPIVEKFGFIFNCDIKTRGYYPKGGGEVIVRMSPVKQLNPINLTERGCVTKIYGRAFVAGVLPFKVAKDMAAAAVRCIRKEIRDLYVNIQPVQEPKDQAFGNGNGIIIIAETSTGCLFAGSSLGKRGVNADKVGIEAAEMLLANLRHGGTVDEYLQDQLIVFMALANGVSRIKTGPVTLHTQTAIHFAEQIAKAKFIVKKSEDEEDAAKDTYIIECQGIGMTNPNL

[2] = biological target: CELF1 (human) (UniProt Q92879)
[3] = biological target: T2, ASS1 (human) (UniProt P00966)
T2 sequence: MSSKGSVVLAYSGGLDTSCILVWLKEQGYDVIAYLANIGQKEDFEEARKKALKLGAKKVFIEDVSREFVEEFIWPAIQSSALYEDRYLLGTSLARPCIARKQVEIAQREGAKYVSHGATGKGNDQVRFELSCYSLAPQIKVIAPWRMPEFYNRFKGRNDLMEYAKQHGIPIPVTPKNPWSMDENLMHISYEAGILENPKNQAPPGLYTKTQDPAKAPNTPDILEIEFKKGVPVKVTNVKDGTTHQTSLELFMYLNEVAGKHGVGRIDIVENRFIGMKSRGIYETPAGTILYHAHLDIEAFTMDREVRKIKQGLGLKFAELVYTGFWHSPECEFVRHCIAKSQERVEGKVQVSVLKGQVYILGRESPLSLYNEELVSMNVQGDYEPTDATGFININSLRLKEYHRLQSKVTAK

[4] = biological target: T3, PSRC1 (human) (UniProt Q6PGN9)
T3 sequence: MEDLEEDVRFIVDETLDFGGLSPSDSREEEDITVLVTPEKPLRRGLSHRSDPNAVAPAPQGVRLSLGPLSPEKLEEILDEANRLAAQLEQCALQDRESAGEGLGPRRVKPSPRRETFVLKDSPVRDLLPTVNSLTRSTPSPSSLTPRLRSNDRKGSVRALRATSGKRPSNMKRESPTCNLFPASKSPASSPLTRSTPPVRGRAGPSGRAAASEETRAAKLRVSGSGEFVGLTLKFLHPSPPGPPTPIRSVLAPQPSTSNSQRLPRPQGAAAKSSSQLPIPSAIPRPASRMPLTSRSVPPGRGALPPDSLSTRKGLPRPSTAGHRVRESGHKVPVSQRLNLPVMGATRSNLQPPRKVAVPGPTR

[5] = biological target: T4, WBP2NL (human) (UniProt Q6ICG8)
T4 sequence: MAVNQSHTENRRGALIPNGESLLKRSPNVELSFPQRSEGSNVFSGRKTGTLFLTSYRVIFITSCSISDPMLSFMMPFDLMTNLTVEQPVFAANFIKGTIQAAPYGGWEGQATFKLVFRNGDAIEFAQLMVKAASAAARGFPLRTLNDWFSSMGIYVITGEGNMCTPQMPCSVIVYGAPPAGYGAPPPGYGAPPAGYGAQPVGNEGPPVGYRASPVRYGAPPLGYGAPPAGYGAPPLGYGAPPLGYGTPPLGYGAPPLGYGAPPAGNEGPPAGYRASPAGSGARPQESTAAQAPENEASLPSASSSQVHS

[6] = biological target: T5, PYCR2 (human) (UniProt Q96C36)
T5 sequence: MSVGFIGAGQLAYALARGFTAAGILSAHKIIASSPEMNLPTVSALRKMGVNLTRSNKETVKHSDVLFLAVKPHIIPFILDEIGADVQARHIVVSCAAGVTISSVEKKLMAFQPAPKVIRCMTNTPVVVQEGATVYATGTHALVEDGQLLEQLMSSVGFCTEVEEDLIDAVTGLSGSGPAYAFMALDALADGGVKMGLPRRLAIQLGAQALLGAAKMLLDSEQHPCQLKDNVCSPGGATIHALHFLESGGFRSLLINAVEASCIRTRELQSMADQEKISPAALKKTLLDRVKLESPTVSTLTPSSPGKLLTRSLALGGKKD

binding [1]: binds
binding [2]: binds
binding [3]: binds
binding [4]: binds
binding [5]: binds
binding [6]: binds
Substance: linear ubiquitin chain assembly complex (LUBAC), purified as HIS-tagged HOIP with the subunit HOIL-1, biotin-labelled (from UniProt Q96EP0 1-1072; Q9BYM8 1-510)
